This is an account of results in the supplement of paper PMC11348887.

Structures can show the parent of a compound that is named as a salt. Some of the results follow. Small differences around the control level are noise. Where a SMILES comes first, the peptide text is derived from it. [ ]: non-standard residue; d: D form. pGlu = O=C1CC[C@@H](C(=O)O)N1; Thz = O=C(O)[C@@H]1CSCN1

The test system of this assay is hPSC-derived cortical neurons (WA09). The experiment in a line: KCl-induced FOS+/EGR-1+ double-positive nuclei fraction z-score (KCl minus unstimulated); higher = stronger activity-induced IEG response. As to conditions: 5 µM; treatment: days 7-14 after plating, readout day 21.
With `CC12CC3CC(C)(C1)CC(N)(C3)C2` [Memantine HCl], the “KCl-induced FOS+/EGR-1+ double-positive nuclei fraction z-score” value was -1.49. As for `O=[N+]([O-])c1ccc(O)c2ncccc12` [Nitroxoline], the “KCl-induced FOS+/EGR-1+ double-positive nuclei fraction z-score” value is -0.365. The same measure for `CN1CCC(=C2c3ccccc3C=Cc3ccccc32)CC1` [Cyproheptadine HCl]: 0.138; for `Cc1c(OCC(F)(F)F)ccnc1C[S@@+]([O-])c1nc2ccccc2[nH]1` [Dexlansoprazole]: -0.353; for `O=C1Nc2ccc(Cl)cc2[C@@](C#CC2CC2)(C(F)(F)F)O1` [Efavirenz]: -0.763. For the molecule `O=C1CC[C@@H](C(=O)N2CSC[C@H]2C(=O)O)N1` [Pidotimod] ([pGlu]-[Thz]-OH), the “KCl-induced FOS+/EGR-1+ double-positive nuclei fraction z-score” value came out at 0.496.
